Results published in PubChem BioAssay AID504834 (National Center for Advancing Translational Sciences (NCATS), 2011).
Several values for one entry are separate records, joined by “and”; a condition that tells them apart may be missing. Equal entries are not always repeated. Screen size: about 320,000 compounds; about 22,000 (6.9%) were called active. Inconclusive results, whose numbers are uncertain, are shown with a selection of clear calls. Calls come from the whole dose curve; as a rule, active = well fitted inhibition curve with a large enough effect; inconclusive = small, poorly fitted or top-dose-only effect, or another doubt; inactive = no such curve, though single readings can be large or run the other way. Potencies of inconclusive entries are doubtful fits and often do not repeat.
% is set by controls: 0 for no effect and ±100 for the full control effect; potency is the fitted concentration of half-maximal effect.

Test: Primary qHTS for delayed death inhibitors of the malarial parasite plastid, 96 hour incubation
Settings: P. falciparum luciferase reporter growth; series mostly up to 28.7 µM; activity change, negative = inhibition: at the top concentration
Outline: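 Plates of compound plus infected erythrocytes (2% hematocrit, 0.05% parasitemia final) incubate 96 hours, 37 C, 5% CO2. Detection reagent added; reduced luminescence from the parasites' luciferase reporter flags inhibition.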
With `CCCC(C(=O)NCc1ccco1)N(C(=O)CNS(=O)(=O)c1ccccc1)c1ccccc1OC` (configuration not stated) the Potency was inconclusive: 18.5 µM [inhibitor, single point]. In the case of `c1ccc2c(c1)Nc1ccccc1S2`, the Potency is reported as active: 8.28 µM and active: 4.78 µM. In the case of `C/C(=N\NC(=O)c1ccc(CSc2nc(C)cc(C)n2)cc1)C1CCCCC1`, the Potency is reported as inconclusive: 11.7 µM [inhibitor, single point]. For `CCOc1cc(OCC)cc(C(=O)Nc2cccc(C(C)=O)c2)c1`, the Potency was inconclusive: 0.208 µM [inhibitor, full curve, poor fit]. In the case of `Cc1ccc(C)[n+](CC(=O)N2CCCCC2)c1`, the “activity change, negative = inhibition” value is reported as inactive: -11%. With `O=C1N/C(=N/N=C/c2ccccc2O)SC1Cc1ccc(F)cc1` (configuration not stated) the Potency was inconclusive: 1.85 µM [inhibitor, full curve]. For `COCCn1c(=S)[nH]c2cc(C(=O)N3CCc4ccccc4C3)ccc2c1=O`, the Potency was inconclusive: 10.4 µM [inhibitor, partial curve, poor fit]. In the case of `Cc1ccc(CNCc2ccc3c(c2)OCO3)cc1`, the Potency is reported as inconclusive: 0.928 µM [inhibitor, full curve, poor fit]. In the case of `COc1cccc(C(=O)COc2cccc(NC(=O)c3cccc([N+](=O)[O-])c3)c2)c1`, the Potency is reported as inconclusive: 0.928 µM [inhibitor, partial curve, poor fit]. With `COC(=O)[C@@]12CCCN1[C@H](c1ccc(-c3ccccc3)cc1)[C@H]1C(=O)N(C)C(=O)[C@H]12` the Potency was inconclusive: 10.4 µM [inhibitor, single point]. In the case of `Cc1cc(Br)ccc1OCCOCCN1CCCC1`, the Potency is reported as inconclusive: 18.5 µM [inhibitor, single point]. In the case of `CCc1ccccc1NC(=O)CN1CCN(C(=O)C(C)NC(=O)c2ccc(Cl)cc2)CC1` (configuration not stated), the Potency is reported as inconclusive: 20.8 µM [inhibitor, partial curve, poor fit]. For `O=C(CSc1nc2ccccc2c(=O)n1Cc1ccc(C(=O)NC2CC2)cc1)NCc1ccco1`, the Potency was inconclusive: 18.5 µM [inhibitor, single point]. In the case of `CC(C)NC(=O)C(=O)NNC(=O)CCc1ccccc1`, the Potency is reported as inconclusive: 4.65 µM [inhibitor, partial curve, poor fit]. With `CCN(CC)c1nc(Oc2ccc(C(=O)OC)cc2)nc(N2CCOCC2)n1` the “activity change, negative = inhibition” value was inactive: 37.5%. For `CC(=O)c1c(C)[nH]c(C(=O)OC2CCCCC2=O)c1C` (configuration not stated), the “activity change, negative = inhibition” value was inactive: -12.3%. In the case of `CCOc1cc(C(=S)N2CCCCC2)ccc1OS(=O)(=O)c1ccc(Br)cc1`, the Potency is reported as inconclusive: 11.7 µM [inhibitor, single point]. In the case of `O=C(Nc1ccccc1O)c1ccc2c(c1)C(=O)N(N1C(=O)c3ccccc3C1=O)C2=O`, the Potency is reported as active: 9.28 µM. For `CCC/C(=N/NC(=O)c1ccc2c(c1)OCO2)c1cccs1`, the Potency was inconclusive: 7.38 µM [inhibitor, single point]. For `CCc1ccccc1NC(=O)CN(C)C(=O)c1cc(C2CC2)nn1-c1ccccc1`, the Potency was inconclusive: 9.28 µM [inhibitor, partial curve, poor fit]. In the case of `Cc1cc(C(=O)NN)c2cc(Br)ccc2n1`, the Potency is reported as inconclusive: 18.5 µM [inhibitor, single point]. With `NNc1nc2c(Cl)ccc(Cl)c2s1` the Potency was inconclusive: 18.5 µM [inhibitor, single point]. With `Cc1ccc(N(CC(O)CN2CCCCC2)S(=O)(=O)c2ccc(C)cc2)cc1` (configuration not stated) the Potency was inconclusive: 9.28 µM [inhibitor, partial curve, poor fit]. For `C[C@]12CC[C@H]3[C@@H](CCC4=CC(=O)CC[C@@]43C)[C@@H]1CC[C@@H]2O`, the Potency was inconclusive: 6.01 µM [inhibitor, partial curve]. For `Cc1ccc(S(=O)(=O)N2CCN(Cc3cc(=O)n4ccccc4n3)CC2)c(C)c1`, the Potency was inconclusive: 9.28 µM [inhibitor, partial curve, poor fit]. In the case of `Cc1c(NC(=O)CCCCCN2C(=O)c3ccccc3C2=O)c(=O)n(-c2ccccc2)n1C`, the “activity change, negative = inhibition” value is reported as inactive: 5.28%. For `Cc1ccc(-c2n[nH]c(=S)n2/N=C/c2ccncc2)cc1`, the “activity change, negative = inhibition” value was inactive: -4.26%. With `Cc1ccc(-c2cc(C(=O)N3CCCC3)c3ccccc3n2)s1` the Potency was inconclusive: 1.65 µM [inhibitor, partial curve]. In the case of `CC(=O)c1sc(NC(=O)c2ccc(Cn3cc(Br)cn3)o2)nc1C`, the “activity change, negative = inhibition” value is reported as inactive: 54.3%. For `COc1ccc(C)cc1-n1nnnc1SCC(=O)Nc1cc(C)on1`, the Potency was inconclusive: 10.4 µM [inhibitor, single point]. With `C/C(=N\NC(=O)CO/N=C(\C)c1cccs1)c1ccc(N)cc1` the “activity change, negative = inhibition” value was inactive: -17.3%. For `C=CCNC(=O)c1onc(CSc2cc(C)cc(C)c2)c1C(=O)NCC=C`, the Potency was inconclusive: 13.1 µM [inhibitor, single point]. For `COc1ccc(S(=O)(=O)N2CCC(C(=O)NCC3CCCO3)CC2)cc1Cl` (configuration not stated), the Potency was inconclusive: 5.22 µM [inhibitor, partial curve]. In the case of `Clc1ccccc1-c1nnc2sc(-c3ccccn3)nn12`, the Potency is reported as inconclusive: 13.1 µM [inhibitor, partial curve, poor fit]. In the case of `O=C(NCc1cccs1)C(=O)NCC1OCCCN1S(=O)(=O)c1cccs1` (configuration not stated), the Potency is reported as inconclusive: 18.5 µM [inhibitor, single point]. In the case of `Cc1ccccc1SCC(=O)OCC(=O)N(C)c1c(N)n(Cc2ccccc2)c(=O)[nH]c1=O`, the Potency is reported as inconclusive: 2.94 µM [inhibitor, single point]. For `Cc1cc([N+](=O)[O-])c2c(c1C)C1C=CCC1C(c1ccccn1)N2` (configuration not stated), the Potency was inconclusive: 6.57 µM [inhibitor, partial curve, poor fit]. With `COc1ccc(NC(=O)CCCC(=O)c2ccccc2)cc1` the Potency was inconclusive: 18.5 µM [inhibitor, single point]. In the case of `CC(C(=O)OCC(=O)N(C)C1(C#N)CCCCC1)N1C(=O)c2ccccc2C1=O` (configuration not stated), the “activity change, negative = inhibition” value is reported as inactive: -1.16%. In the case of `Cc1sc2nc(-c3ccccc3)oc(=O)c2c1C`, the Potency is reported as inconclusive: 4.15 µM [inhibitor, single point]. With `O=C(O)COc1ccc(/C=N/n2c(COc3ccccc3)nc3ccccc3c2=O)cc1` the “activity change, negative = inhibition” value was inactive: -12.1%. With `Cc1nc(-n2nnc(CO)c2CO)nc2c1CCC2` the Potency was inconclusive: 2.33 µM [inhibitor, full curve, poor fit].
